The record followed here is paper PMC7545202.

Chains of the proteins cited; added tags and fusions are not shown.
UniProt Q5NCY0: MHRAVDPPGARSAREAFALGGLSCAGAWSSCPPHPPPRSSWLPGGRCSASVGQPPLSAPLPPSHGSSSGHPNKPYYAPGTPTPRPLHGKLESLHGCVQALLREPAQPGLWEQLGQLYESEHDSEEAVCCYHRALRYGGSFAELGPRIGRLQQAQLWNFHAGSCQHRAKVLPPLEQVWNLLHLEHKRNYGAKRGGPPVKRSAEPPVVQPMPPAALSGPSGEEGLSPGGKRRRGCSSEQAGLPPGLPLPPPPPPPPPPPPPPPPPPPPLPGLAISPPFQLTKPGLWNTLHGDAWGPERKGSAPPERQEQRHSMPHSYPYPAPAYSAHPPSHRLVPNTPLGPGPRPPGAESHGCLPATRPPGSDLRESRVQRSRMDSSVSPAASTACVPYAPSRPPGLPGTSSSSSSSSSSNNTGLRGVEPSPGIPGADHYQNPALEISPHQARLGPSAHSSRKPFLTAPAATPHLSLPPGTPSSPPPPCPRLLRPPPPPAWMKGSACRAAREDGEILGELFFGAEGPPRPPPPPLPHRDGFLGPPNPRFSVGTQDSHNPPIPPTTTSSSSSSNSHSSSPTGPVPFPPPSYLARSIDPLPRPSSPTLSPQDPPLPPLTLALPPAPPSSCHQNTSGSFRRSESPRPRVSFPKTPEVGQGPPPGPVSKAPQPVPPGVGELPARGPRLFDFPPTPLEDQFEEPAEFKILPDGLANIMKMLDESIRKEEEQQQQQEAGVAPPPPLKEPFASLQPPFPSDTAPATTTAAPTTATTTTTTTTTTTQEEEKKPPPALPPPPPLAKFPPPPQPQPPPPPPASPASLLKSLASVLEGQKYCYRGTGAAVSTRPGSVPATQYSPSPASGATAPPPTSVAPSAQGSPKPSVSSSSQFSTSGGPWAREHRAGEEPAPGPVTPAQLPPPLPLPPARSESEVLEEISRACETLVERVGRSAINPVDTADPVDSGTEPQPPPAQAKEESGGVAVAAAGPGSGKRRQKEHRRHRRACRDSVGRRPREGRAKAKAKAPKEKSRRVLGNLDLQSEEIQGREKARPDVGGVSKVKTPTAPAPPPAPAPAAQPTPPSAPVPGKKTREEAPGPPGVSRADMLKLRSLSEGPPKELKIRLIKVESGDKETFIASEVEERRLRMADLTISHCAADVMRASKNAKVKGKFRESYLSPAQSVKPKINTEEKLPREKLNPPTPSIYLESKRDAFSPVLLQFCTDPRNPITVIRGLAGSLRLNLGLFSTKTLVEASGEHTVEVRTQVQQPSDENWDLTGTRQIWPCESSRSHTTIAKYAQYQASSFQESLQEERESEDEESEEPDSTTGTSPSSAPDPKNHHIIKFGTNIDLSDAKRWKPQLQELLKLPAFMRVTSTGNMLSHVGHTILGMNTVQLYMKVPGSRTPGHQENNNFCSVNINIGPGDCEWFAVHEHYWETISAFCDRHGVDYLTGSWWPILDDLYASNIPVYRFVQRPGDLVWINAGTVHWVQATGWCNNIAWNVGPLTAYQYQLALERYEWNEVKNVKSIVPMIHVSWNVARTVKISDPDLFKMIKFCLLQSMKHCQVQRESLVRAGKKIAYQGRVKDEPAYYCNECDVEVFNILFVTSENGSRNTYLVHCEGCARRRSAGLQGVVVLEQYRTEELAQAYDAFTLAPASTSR
UniProt Q6KCD5: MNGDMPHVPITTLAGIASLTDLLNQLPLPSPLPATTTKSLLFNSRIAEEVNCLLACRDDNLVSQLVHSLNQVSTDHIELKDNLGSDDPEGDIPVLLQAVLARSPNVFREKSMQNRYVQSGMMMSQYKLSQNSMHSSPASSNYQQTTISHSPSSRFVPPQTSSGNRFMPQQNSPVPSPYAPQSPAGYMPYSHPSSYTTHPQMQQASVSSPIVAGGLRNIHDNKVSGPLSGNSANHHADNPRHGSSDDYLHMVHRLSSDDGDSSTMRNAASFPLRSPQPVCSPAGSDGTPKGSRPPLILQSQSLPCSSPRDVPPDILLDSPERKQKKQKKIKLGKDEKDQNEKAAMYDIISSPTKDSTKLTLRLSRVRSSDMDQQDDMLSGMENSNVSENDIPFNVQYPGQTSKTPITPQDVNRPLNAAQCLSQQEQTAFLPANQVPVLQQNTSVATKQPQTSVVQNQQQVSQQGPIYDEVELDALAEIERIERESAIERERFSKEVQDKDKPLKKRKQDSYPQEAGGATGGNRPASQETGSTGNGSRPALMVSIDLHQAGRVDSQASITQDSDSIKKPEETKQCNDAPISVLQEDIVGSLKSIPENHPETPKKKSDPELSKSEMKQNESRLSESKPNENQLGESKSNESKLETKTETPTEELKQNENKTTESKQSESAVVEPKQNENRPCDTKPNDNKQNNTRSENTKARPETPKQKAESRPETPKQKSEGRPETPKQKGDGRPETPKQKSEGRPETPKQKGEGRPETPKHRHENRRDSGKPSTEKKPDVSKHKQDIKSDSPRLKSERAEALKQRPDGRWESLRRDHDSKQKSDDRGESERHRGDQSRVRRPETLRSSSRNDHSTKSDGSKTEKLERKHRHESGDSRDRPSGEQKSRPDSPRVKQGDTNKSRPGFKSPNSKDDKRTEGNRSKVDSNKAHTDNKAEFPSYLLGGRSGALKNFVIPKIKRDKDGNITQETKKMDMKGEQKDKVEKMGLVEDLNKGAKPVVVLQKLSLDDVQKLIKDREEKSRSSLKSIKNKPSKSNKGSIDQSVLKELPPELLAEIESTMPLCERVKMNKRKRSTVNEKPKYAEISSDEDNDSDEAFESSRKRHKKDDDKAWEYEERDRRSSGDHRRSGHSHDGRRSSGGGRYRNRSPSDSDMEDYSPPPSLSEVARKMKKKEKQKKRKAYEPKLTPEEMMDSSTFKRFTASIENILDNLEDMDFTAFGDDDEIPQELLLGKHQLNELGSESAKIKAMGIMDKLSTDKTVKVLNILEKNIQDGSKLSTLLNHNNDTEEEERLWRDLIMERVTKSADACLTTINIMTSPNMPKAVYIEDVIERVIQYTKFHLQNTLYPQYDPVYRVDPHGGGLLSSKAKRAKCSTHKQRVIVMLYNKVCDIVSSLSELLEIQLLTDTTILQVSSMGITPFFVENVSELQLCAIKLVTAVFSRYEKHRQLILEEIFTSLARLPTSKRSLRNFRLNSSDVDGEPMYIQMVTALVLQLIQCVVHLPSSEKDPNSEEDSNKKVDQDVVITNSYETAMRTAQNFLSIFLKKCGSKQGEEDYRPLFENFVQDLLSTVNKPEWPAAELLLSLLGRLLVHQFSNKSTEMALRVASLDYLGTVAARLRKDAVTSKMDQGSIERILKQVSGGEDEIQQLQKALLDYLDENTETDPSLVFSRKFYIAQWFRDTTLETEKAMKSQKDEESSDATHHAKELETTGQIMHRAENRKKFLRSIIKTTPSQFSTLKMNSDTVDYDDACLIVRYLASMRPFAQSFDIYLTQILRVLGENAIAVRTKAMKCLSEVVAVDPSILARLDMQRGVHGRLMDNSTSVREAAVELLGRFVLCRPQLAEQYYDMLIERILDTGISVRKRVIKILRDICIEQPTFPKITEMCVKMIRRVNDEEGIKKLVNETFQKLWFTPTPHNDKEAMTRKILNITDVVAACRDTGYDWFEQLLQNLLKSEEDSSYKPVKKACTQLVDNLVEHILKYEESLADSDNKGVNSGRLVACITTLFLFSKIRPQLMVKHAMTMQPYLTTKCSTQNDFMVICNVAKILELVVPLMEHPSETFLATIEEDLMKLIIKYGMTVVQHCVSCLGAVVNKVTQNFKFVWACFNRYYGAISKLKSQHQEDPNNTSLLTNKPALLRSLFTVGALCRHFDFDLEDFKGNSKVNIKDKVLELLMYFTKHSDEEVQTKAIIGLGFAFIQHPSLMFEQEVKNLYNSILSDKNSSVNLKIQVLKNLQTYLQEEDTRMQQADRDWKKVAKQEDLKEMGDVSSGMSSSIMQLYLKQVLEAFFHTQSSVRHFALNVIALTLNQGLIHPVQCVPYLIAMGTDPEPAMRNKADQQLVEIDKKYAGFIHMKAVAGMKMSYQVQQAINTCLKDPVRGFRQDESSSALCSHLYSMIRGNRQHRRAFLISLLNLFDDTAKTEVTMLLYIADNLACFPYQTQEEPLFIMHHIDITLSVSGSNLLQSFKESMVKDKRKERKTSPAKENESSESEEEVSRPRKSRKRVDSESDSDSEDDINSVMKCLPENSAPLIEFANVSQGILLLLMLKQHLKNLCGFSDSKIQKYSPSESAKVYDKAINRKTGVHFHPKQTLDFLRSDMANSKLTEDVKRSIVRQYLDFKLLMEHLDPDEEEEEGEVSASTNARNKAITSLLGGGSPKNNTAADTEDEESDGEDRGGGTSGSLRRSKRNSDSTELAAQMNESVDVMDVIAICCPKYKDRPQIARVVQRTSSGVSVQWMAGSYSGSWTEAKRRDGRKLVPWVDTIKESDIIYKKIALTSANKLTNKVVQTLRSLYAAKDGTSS
UniProt Q99J95: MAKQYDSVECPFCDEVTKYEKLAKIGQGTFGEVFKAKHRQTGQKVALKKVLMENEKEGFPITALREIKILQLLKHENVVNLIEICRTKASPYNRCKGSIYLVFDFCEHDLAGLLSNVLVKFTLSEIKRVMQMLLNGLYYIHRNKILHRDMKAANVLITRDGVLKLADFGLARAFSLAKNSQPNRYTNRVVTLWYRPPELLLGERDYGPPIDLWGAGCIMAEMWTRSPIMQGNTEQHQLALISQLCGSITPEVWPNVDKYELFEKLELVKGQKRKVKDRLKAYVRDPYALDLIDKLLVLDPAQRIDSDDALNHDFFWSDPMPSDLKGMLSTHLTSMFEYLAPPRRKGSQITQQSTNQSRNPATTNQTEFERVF

Like-named read-outs stand apart in the source and are kept apart here. Results are given in words; binding and its absence hold for the method and conditions named. Binding seen in cells or lysates may run through a third protein. Some entries that bind do so weakly or less than the wild type.

Assay [1] has as its target 3×FLAG-tagged JMJD3 (mouse) (UniProt Q5NCY0). Put plainly: co-IP; anti-FLAG M2 magnetic beads with nuclear extracts (2 × 10^7 cells) from OSKM-reprogrammed P2 MEFs with 3×FLAG-tagged JMJD3 (day 5), overnight at 4 °C; washed 5-8 times (50 mM Tris-HCl pH 7.9, 100 mM KCl, 0.1% NP-40); eluted with 3×FLAG peptide; western blotting. In general terms: A western blot detects proteins with antibodies after separation by electrophoresis.

Assay [2] shares this target. Described as above. This is another data set of the same source.

NIPBL (from UniProt Q6KCD5 1-2798): the binding result in assay [1] is “binds”.
The same measure, in the same setting: then “CDK9 (from UniProt Q99J95 1-372) (enzyme)”, with “binds”.

B1: SMC1A (protein, UniProt Q9CU62 1-1233)
chain: MGFLKLIEIENFKSYKGRQIIGPFQRFTAIIGPNGSGKSNLMDAISFVLGEKTSNLRVKTLRDLIHGAPVGKPAANRAFVSMVYSEEGAEDRTFARVIVGGSSEYKINNKVVQLHEYSEELEKLGILIKARNFLVFQGAVESIAMKNPKERTALFEEISRSGELAQEYDKRKKEMVKAEEDTQFNYHRKKNIAAERKEAKQEKEEADRYQRLKDEVVRAQVQLQLFKLYHNEVEIEKLNKELASKNKEIEKDKKRMDKVEDELKEKKKELGKMMREQQQIEKEIKEKDSELNQKRPQYIKAKENTSHKIKKLEAAKKSLQNAQKHYKKRKGDMDELEKEMLSVEKARQEFEERMEEESQSQGRDLTLEENQVKKYHRLKEEASKRAATLAQELEKFNRDQKADQDRLDLEERKKVETEAKIKQKLREIEENQKRIEKLEEYITTSKQSLEEQKKLEGELTEEVEMAKRRIDEINKELNQVMEQLGDARIDRQESSRQQRKAEIMESIKRLYPGSVYGRLIDLCQPTQKKYQIAVTKVLGKNMDAIIVDSEKTGRDCIQYIKEQRGEPETFLPLDYLEVKPTDEKLRELKGAKLVIDVIRYEPPHIKKALQYACGNALVCDNVEDARRIAFGGHQRHKTVALDGTLFQKSGVISGGASDLKAKARRWDEKAVDKLKEKKERLTEELKEQMKAKRKEAELRQVQSQAHGLQMRLKYSQSDLEQTKTRHLALNLQEKSKLESELANFGPRINDIKRIIQSREREMKDLKEKMNQVEDEVFEEFCREIGVRNIREFEEEKVKRQNEIAKKRLEFENQKTRLGIQLDFEKNQLKEDQDKVHMWEQTVKKDENEIEKLKKEEQRHMKIIDETMAQLQDLKNQHLAKKSEVNDKNHEMEEIRKKLGGANKEMTHLQKEVTAIETKLEQKRSDRHNLLQACKMQDIKLPLSKGTMDDISQEEGSSQGEESVSGSQRTSSIYAREALIEIDYGDLCEDLKDAQAEEEIKQEMNTLQQKLNEQQSVLQRIAAPNMKAMEKLESVRDKFQETSDEFEAARKRAKKAKQAFEQIKKERFDRFNACFESVATNIDEIYKALSRNSSAQAFLGPENPEEPYLDGINYNCVAPGKRFRPMDNLSGGEKTVAALALLFAIHSYKPAPFFVLDEIDAALDNTNIGKVANYIKEQSTCNFQAIVISLKEEFYTKAESLIGVYPEQGDCVISKVLTFDLTKYPDANPNPNEQ
Consider B1, for which the binding result in assay [2] is given as “binds”.
